PubChem BioAssay AID504808 | Drosophila RNAi Screening Center | 2011
Assay: 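Chromatin factors that keep E2F targets switched off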 (primary screen). System: Drosophila S2 cells. Knock-down reagent: long dsRNA against Drosophila genes. Detection: 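Firefly luciferase driven by E2F sites, normalised to Renilla luciferase on the same minimal promoter, measured by plate reader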. Direction: E2F firefly: higher = more E2F reporter activity; Renilla normaliser: higher = more normaliser reporter signal. Rule for the call: 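Called active if the normalised E2F reporter went up by over 50%; the cutoff is arbitrary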.
The deposit covers about 21,000 reagents; this is an unselected part of those that have a named target and a result. In the full data, 18 (0.084%) are marked active. 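Raw counts without plate normalisation, one of two replicates; the ratio scores behind the calls were not deposited.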 A plus sign joins genes that one reagent is predicted to hit. The record does not give: the amount of reagent, the time to read-out.

| Gene | dsRNA | E2F firefly, rep 1 | Renilla normaliser, rep 1 | activity call |
| --- | --- | --- | --- | --- |
| Or56a (GeneID 37269) | DRSC07495 | 1.38e5 | 5194 | inactive |
| corolla (GeneID 32739) | DRSC20102 | 1.55e5 | 5408 | inactive |
| clu (GeneID 36793) | DRSC07181 | 61371 | 3272 | inactive |
| CG14861 (GeneID 41810) | DRSC14984 | 1.16e5 | 6055 | inactive |
| CG31087 (GeneID 43062) | DRSC14253 | 87438 | 4546 | inactive |
| Papst2 (GeneID 39914) | DRSC10924 | 84398 | 3669 | inactive |
| reb (GeneID 36275) | DRSC06308 | 93192 | 3870 | inactive |
| CG30076 (GeneID 246438) | DRSC05494 | 1.36e5 | 4199 | inactive |
| Strump (GeneID 39766) | DRSC09872 | 1.45e5 | 8529 | inactive |
| myd (GeneID 42303) | DRSC14762 | 48494 | 2814 | inactive |
| myd (GeneID 42303) | DRSC15512 | 1.39e5 | 6526 | inactive |
| CG7601 (GeneID 43502) | DRSC14131 | 2033 | 844 | inactive |
| Gr59c (GeneID 192481) | DRSC04185 | 1.00e5 | 4036 | inactive |
| CG10376 (GeneID 35126) | DRSC02049 | 80985 | 4373 | inactive |
| side (GeneID 43300) | DRSC14523 | 1.15e5 | 6360 | inactive |
| side (GeneID 43300) | DRSC14716 | 1.12e5 | 5781 | inactive |
| side (GeneID 43300) | DRSC14717 | 1.09e5 | 6096 | inactive |
| side (GeneID 43300) | DRSC14718 | 1.10e5 | 5730 | inactive |
| side (GeneID 43300) | DRSC14721 | 1.13e5 | 5669 | inactive |
| phr6-4 (GeneID 35322) | DRSC03589 | 1.07e5 | 4386 | inactive |
| mad2 (GeneID 38656) | DRSC10274 | 70307 | 3997 | inactive |
| 5-HT1B (GeneID 37191) | DRSC05031 | 1.30e5 | 4251 | inactive |
| 5-HT1B (GeneID 37191) | DRSC05769 | 74393 | 4210 | inactive |
| CG31741 (GeneID 35079) | DRSC02887 | 1.00e5 | 4321 | inactive |
| Dus1 (GeneID 33190) | DRSC00623 | 1.57e5 | 4610 | inactive |
| TbCMF46 (GeneID 34318) | DRSC02221 | 1.38e5 | 4862 | inactive |
| CG12517 (GeneID 34506) | DRSC02173 | 1.33e5 | 4150 | inactive |
| CG34159 (GeneID 34353) | DRSC02885 | 1.54e5 | 4610 | inactive |
| CG13258 (GeneID 34959) | DRSC02244 | 1.09e5 | 4457 | inactive |
| EndoG (GeneID 36309) | DRSC07292 | 86695 | 4312 | inactive |
| N (GeneID 31293) | DRSC18685 | 1.19e5 | 6216 | inactive |
| CG15464 (retired record) (GeneID 31436) | DRSC18047 | 1.02e5 | 5057 | inactive |
| COX6AL2 (GeneID 40066) | DRSC10082 | 1.08e5 | 5532 | inactive |
| Skp2 (GeneID 40548) | DRSC12329 | 71472 | 4015 | inactive |
| rau (GeneID 33814) | DRSC03125 | 85968 | 3909 | inactive |
| CG15194 (retired record) (GeneID 32091) | DRSC19642 | 67901 | 3745 | inactive |
| CG15194 (retired record) (GeneID 32091) | DRSC19777 | 1.48e5 | 6820 | inactive |
| Snp (GeneID 37511) | DRSC04524 | 1.02e5 | 4475 | inactive |
| alrm (GeneID 43074) | DRSC14436 | 1.10e5 | 5563 | inactive |

Targets above whose target name begins with C or c (15):
| Gene | dsRNA | E2F firefly, rep 1 | Renilla normaliser, rep 1 | activity call |
| --- | --- | --- | --- | --- |
| corolla (GeneID 32739) | DRSC20102 | 1.55e5 | 5408 | inactive |
| clu (GeneID 36793) | DRSC07181 | 61371 | 3272 | inactive |
| CG14861 (GeneID 41810) | DRSC14984 | 1.16e5 | 6055 | inactive |
| CG31087 (GeneID 43062) | DRSC14253 | 87438 | 4546 | inactive |
| CG30076 (GeneID 246438) | DRSC05494 | 1.36e5 | 4199 | inactive |
| CG7601 (GeneID 43502) | DRSC14131 | 2033 | 844 | inactive |
| CG10376 (GeneID 35126) | DRSC02049 | 80985 | 4373 | inactive |
| CG31741 (GeneID 35079) | DRSC02887 | 1.00e5 | 4321 | inactive |
| CG12517 (GeneID 34506) | DRSC02173 | 1.33e5 | 4150 | inactive |
| CG34159 (GeneID 34353) | DRSC02885 | 1.54e5 | 4610 | inactive |
| CG13258 (GeneID 34959) | DRSC02244 | 1.09e5 | 4457 | inactive |
| CG15464 (retired record) (GeneID 31436) | DRSC18047 | 1.02e5 | 5057 | inactive |
| COX6AL2 (GeneID 40066) | DRSC10082 | 1.08e5 | 5532 | inactive |
| CG15194 (retired record) (GeneID 32091) | DRSC19642 | 67901 | 3745 | inactive |
| CG15194 (retired record) (GeneID 32091) | DRSC19777 | 1.48e5 | 6820 | inactive |

The list goes on:
| Gene | dsRNA | E2F firefly, rep 1 | Renilla normaliser, rep 1 | activity call |
| --- | --- | --- | --- | --- |
| Nep3 (GeneID 33005) | DRSC20685 | 1.47e5 | 7351 | inactive |
| CG13386 (GeneID 34165) | DRSC02260 | 1.39e5 | 5016 | inactive |
| CG5800 (GeneID 32742) | DRSC19962 | 1.46e5 | 7002 | inactive |
| CG12460 (retired record) (GeneID 3355078) | DRSC20970 | 1.35e5 | 5935 | inactive |
| Wwox (GeneID 34090) | DRSC03030 | 85888 | 4016 | inactive |
| stretch (retired record) (GeneID 46211) | DRSC14347 | 1.00e5 | 4238 | inactive |
| stretch (retired record) (GeneID 46211) | DRSC14512 | 1.32e5 | 6052 | inactive |
| stretch (retired record) (GeneID 46211) | DRSC14541 | 1.40e5 | 5977 | inactive |
| stretch (retired record) (GeneID 46211) | DRSC14542 | 1.44e5 | 6080 | inactive |
| stretch (retired record) (GeneID 46211) | DRSC14543 | 1.32e5 | 6005 | inactive |
| CG8925 (GeneID 41963) | DRSC16455 | 1.19e5 | 7178 | inactive |
| CG8925 (GeneID 41963) | DRSC16456 | 1.12e5 | 6786 | inactive |
| CG8925 (GeneID 41963) | DRSC16457 | 1.15e5 | 6330 | inactive |
| sws (GeneID 31716) | DRSC18843 | 60193 | 3594 | inactive |
| CG14411 (GeneID 32408) | DRSC19597 | 1.58e5 | 6410 | inactive |
| Coprox (GeneID 44701) | DRSC01996 | 98190 | 4063 | inactive |
| Sox14 (GeneID 37822) | DRSC04656 | 1.09e5 | 4619 | inactive |
| plx (GeneID 40704) | DRSC12260 | 1.28e5 | 6185 | inactive |
| plx (GeneID 40704) | DRSC12385 | 1.43e5 | 7014 | inactive |
| SkpA (GeneID 31016) | DRSC18833 | 1524 | 968 | inactive |
| LKRSDH (GeneID 34064) | DRSC03015 | 95241 | 3867 | inactive |
| uex (GeneID 5740320) | DRSC20784 | 84472 | 3030 | inactive |
| uex (GeneID 5740320) | DRSC20786 | 77576 | 3782 | inactive |
| PpV (GeneID 31582) | DRSC18700 | 1.25e5 | 5905 | inactive |
| CG34011 (GeneID 3885619) | DRSC00888 | 1.24e5 | 5157 | inactive |
| Dlip3 (GeneID 53579) | DRSC07401 | 1.48e5 | 4772 | inactive |
| CG7724 (GeneID 39918) | DRSC10905 | 75197 | 3414 | inactive |
| CG13073 (GeneID 39773) | DRSC09956 | 1.52e5 | 8661 | inactive |
| CG7079 (GeneID 42488) | DRSC16192 | 1.62e5 | 7675 | inactive |
| yin (GeneID 31340) | DRSC18854 | 1858 | 920 | inactive |
| CG3726 (GeneID 31525) | DRSC18320 | 61372 | 860 | inactive |
| CG6937 + btn | DRSC16917 | 96349 | 5575 | inactive |
| psq (GeneID 36118) | DRSC07668 | 2020 | 220 | inactive |
| HLH3B (GeneID 31249) | DRSC18669 | 1.26e5 | 6144 | inactive |
| Ir54a + sub | DRSC06459 | 1.40e5 | 4763 | inactive |
| CG13640 (GeneID 42967) | DRSC14639 | 98153 | 5400 | inactive |
| CG11807 (GeneID 36683) | DRSC06087 | 75894 | 3276 | inactive |
| Rpp14b (GeneID 43578) | DRSC15063 | 1.16e5 | 5953 | inactive |
| CG9813 (GeneID 41644) | DRSC16569 | 73490 | 3429 | inactive |
| CG2608 (GeneID 35323) | DRSC02709 | 51238 | 3031 | inactive |
| sds22 (GeneID 42091) | DRSC17052 | 1.24e5 | 7186 | inactive |
| MED26 (GeneID 43816) | DRSC17126 | 68161 | 3003 | inactive |
| MED26 (GeneID 43816) | DRSC17147 | 25926 | 3327 | inactive |
| MED26 (GeneID 43816) | DRSC17148 | 1096 | 808 | inactive |
| vrs (GeneID 41537) | DRSC15832 | 1.32e5 | 6354 | inactive |
